# Assay results published in PubChem BioAssay AID588497 (NMMLSC, 2011).
# About 780 (0.22%) of roughly 360,000 compounds were called active. This list was built around the results that the source calls inconclusive (neither active nor inactive); the mix of calls is not that of the screen. Rule as the data show it: active = inhibition above about 35% (passing the limit was not always enough); inconclusive = no clear call, values can overlap the other calls.
# System: Botulinum neurotoxin type F light chain protease (Clostridium botulinum)
# Assay: BoNT/F light chain protease inhibitors, primary screen, biochemical, flow cytometry, MLPCN library (AID 588497); also: plate controls were buffer without enzyme for full effect and enzyme alone for no effect
# Details: Multiplex microsphere protease cleavage assay, at 10 µM, stronger effect = higher value
row,SMILES,inhibition
1,Cc1ccc(C(=O)Oc2cc(C)n(C)c(=O)c2)cc1,inconclusive: 28.2%
2,CCOc1ccccc1NC(=O)CCNS(=O)(=O)c1ccccc1,inconclusive: 20%
3,COc1cc(C(=O)N2CCN(C(=O)c3ccco3)CC2)c([N+](=O)[O-])cc1OC,inactive: -5%
4,CS(=O)(=O)N1CCN(C(=O)c2ccc3c(c2)OCCO3)CC1,inconclusive: 12.5%
5,Cc1ccc(-c2csc3ncnc(Nc4ccc(N5CCOCC5)cc4)c23)cc1,inconclusive: 2.2%
6,O=C(Nc1ccc(-c2n[nH]c(=S)o2)cc1)c1ccccc1Br,inconclusive: -1.2%
7,CCN(CC)c1ccc2cc(C(C)=O)c(=O)oc2c1,inactive: 1%
8,C/C(=N/NC(=O)CNC(=O)C(c1ccccc1)c1ccccc1)c1ccco1,inconclusive: -34.7%
9,CC(=O)Nc1ccc(NC(=O)CSc2nnc(N)n2-c2ccccc2)cc1,active: 38.9%
10,CCOC(=O)C1=C(C)N=C2SC(C)C(=O)N2C1c1ccc(C(=O)OC)cc1 (configuration not stated),inconclusive: 3.4%
11,O=C(CN1CCOCC1)Nc1ccc(-c2nc3ccccc3[nH]2)cc1,inactive: -5.4%
12,CCOc1ccc(N/C=C/C(=O)c2ccc(OC)cc2)cc1,inconclusive: -16.9%
13,CC(=O)C1C(c2cccc(F)c2)c2c(n[nH]c2C)CC1(C)O (configuration not stated),inconclusive: -36.2%
14,COC(=O)c1cnc(Oc2ccc(NC(=O)NC(=O)c3c(F)cccc3F)cc2)cc1C(F)(F)F,inconclusive: -11.9%
15,Cc1cc(C)c2nc(N3CCOCC3)c(C#N)cc2c1,inconclusive: 19.4%
16,CC(=O)NC(=S)Nc1ccc(NC(=S)NC(=O)/C=C/c2ccco2)cc1,inconclusive: -38.2%
17,Cc1ccnc(N/C=C(/NC(=O)c2ccccc2)C(=O)N/N=C\c2ccc(Cl)cc2)n1,inactive: -0.9%
18,Cn1c(N)c(C(=O)CSc2nnc(-c3c[nH]c4ccccc34)n2C2CC2)c(=O)[nH]c1=O,inconclusive: 22%
19,O=C(Nc1ccc(COc2ccccc2)cc1)Oc1ccccc1N1CCOCC1,inconclusive: 6.6%

# Gathered by group, the compounds so far containing nitrogen in an aromatic ring (10)
row,SMILES,inhibition
1,Cc1ccc(C(=O)Oc2cc(C)n(C)c(=O)c2)cc1,inconclusive: 28.2%
5,Cc1ccc(-c2csc3ncnc(Nc4ccc(N5CCOCC5)cc4)c23)cc1,inconclusive: 2.2%
6,O=C(Nc1ccc(-c2n[nH]c(=S)o2)cc1)c1ccccc1Br,inconclusive: -1.2%
9,CC(=O)Nc1ccc(NC(=O)CSc2nnc(N)n2-c2ccccc2)cc1,active: 38.9%
11,O=C(CN1CCOCC1)Nc1ccc(-c2nc3ccccc3[nH]2)cc1,inactive: -5.4%
13,CC(=O)C1C(c2cccc(F)c2)c2c(n[nH]c2C)CC1(C)O (configuration not stated),inconclusive: -36.2%
14,COC(=O)c1cnc(Oc2ccc(NC(=O)NC(=O)c3c(F)cccc3F)cc2)cc1C(F)(F)F,inconclusive: -11.9%
15,Cc1cc(C)c2nc(N3CCOCC3)c(C#N)cc2c1,inconclusive: 19.4%
17,Cc1ccnc(N/C=C(/NC(=O)c2ccccc2)C(=O)N/N=C\c2ccc(Cl)cc2)n1,inactive: -0.9%
18,Cn1c(N)c(C(=O)CSc2nnc(-c3c[nH]c4ccccc34)n2C2CC2)c(=O)[nH]c1=O,inconclusive: 22%

# Next part

row,SMILES,inhibition
1,CC(=O)N/C(=C\c1ccc(C)o1)C(=O)NCc1ccccc1,inconclusive: -6.7%
2,CNC(=O)c1ccc(NC(=O)/C=C/c2cccc(F)c2)cc1,inactive: -10%
3,Cc1ccc[n+](CC(=O)Nc2ccc([N+](=O)[O-])cc2)c1,inconclusive: -23.1%
4,Cc1ccc(NC(=O)CN(C)C2CCCCC2)cc1Cl,inconclusive: -2.9%
5,COc1ccc2nc(SCC(=O)Nc3ccccc3OC)[nH]c2c1,inconclusive: 38%
6,N#Cc1nc(-c2ccccc2F)oc1NCCc1ccccn1,inactive: 5.2%
7,Cc1ccc2c(N)c(C(=O)c3ccccc3)sc2n1,inconclusive: 13.8%
8,COc1ccc(C(C(=O)NCC2CCCO2)N(C(=O)Cn2nnc3ccccc32)c2ccc(NC(C)=O)cc2)cc1 (configuration not stated),inactive: 15.2%
9,COc1ccc(OC)c(N=Cc2c(O)c3ccccc3oc2=O)c1,inconclusive: -37.1%
10,Cc1ccc(-c2ccccc2NC(=O)CCl)o1,inactive: 8.1%
11,CC(C)Cn1c2c(c(O)c(C(=O)Nc3nc4ccccc4s3)c1=O)CCCC2,inconclusive: 8%
12,CCc1nc2ccc(C(=O)NCc3ccccc3OC)cn2c1N(CC)CCOC,inactive: 0.5%
13,COc1ccc(Cc2nnc(NC(=O)Nc3ccccc3)s2)cc1OC,inconclusive: -39%
14,COc1ccc(Cc2nnc(NC(=O)Cn3cnc4c3c(=O)n(C)c(=O)n4C)s2)cc1,inconclusive: 13.7%
15,Cc1nn(-c2cc(C)c3ccccc3n2)c2c1CCC2,inactive: 10.7%
16,Cc1cccc(-n2c(C)cc(/C=C3\NC(=O)NC3=O)c2C)c1,inconclusive: -107%
17,COc1ccc(CCC(=O)Nc2nnc(C(C)(C)C)s2)cc1,inconclusive: 0.5%
18,CCN(CC)C(=O)[C@H]1C[C@H](CC(=O)NCCC2=CCCCC2)C(=O)N2CCc3c([nH]c4ccc(Cl)cc34)[C@]12C,inactive: -6.7%
19,COCCNC(=O)CN(C(=O)CCC(=O)Nc1ccccn1)c1ccc(OC)cc1,inconclusive: 24.6%

# Reprinted at random: two entries already listed, in no set order.
row,SMILES,inhibition
18,CCN(CC)C(=O)[C@H]1C[C@H](CC(=O)NCCC2=CCCCC2)C(=O)N2CCc3c([nH]c4ccc(Cl)cc34)[C@]12C,inactive: -6.7%
8,COc1ccc(C(C(=O)NCC2CCCO2)N(C(=O)Cn2nnc3ccccc32)c2ccc(NC(C)=O)cc2)cc1 (configuration not stated),inactive: 15.2%

# Further entries follow.

row,SMILES,inhibition
1,c1ccc(Cn2ncc3c(N4CCN(C(c5ccccc5)c5ccccc5)CC4)ncnc32)cc1,inconclusive: -44.9%
2,O=C(OCc1ccccc1)N1CCC2CC1c1c2cccc1N1CCOCC1 (configuration not stated),inactive: -8.4%
3,CNC[C@H]1OCc2ccccc2-c2ccccc2C(=O)N([C@@H](C)CO)C[C@H]1C,inactive: -12.6%
4,C=CCOC(=O)c1cc(-c2ccc(/C=C3\C(=O)NC(=O)C(C#N)=C3C)o2)ccc1Cl,inactive: 1.9%
5,CN(C)Cc1csc(NC(=O)Nc2ccccc2Oc2ccccc2)n1,inactive: -7.7%
6,CC1CCN(CCc2nc3cc(NC(=O)Nc4ccccc4)ccc3n2C)CC1,inconclusive: 3.7%
7,N#Cc1ccccc1S(=O)(=O)Nc1ccc2c(c1)C(=O)OC2,inconclusive: -1.2%
8,COC(=O)C1Cc2ccccc2CN1S(=O)(=O)c1ccc(F)cc1 (configuration not stated),inconclusive: -41.3%
9,CCOC(=O)c1cnc2ccc(C(=O)OC)cc2c1NCCCN1CCOCC1,inconclusive: -20.3%
10,Cc1ccc(C)c(C(=O)n2cnnc2N)c1,inactive: -16.3%
11,Clc1ccc(-c2cn3ccccc3n2)cc1,inconclusive: -57%
12,Cc1cccc(COC[C@H](CC(C)C)N2CCN(C(=O)c3ccc(C(F)(F)F)cc3)CCC2=O)c1,inactive: -1.7%
13,COc1ccc(C(=O)N2CCN(S(=O)(=O)N3CCOCC3)CC2)cc1OC,inconclusive: -17.7%
14,Cn1c(SCC(=O)Nc2cccc(F)c2)nnc1-c1cc2ccccc2o1,inconclusive: -20.5%
15,Cc1ccc(-n2nnc3c(=O)n(Cc4cc(C)ccc4C)cnc32)cc1,inactive: -20.6%
16,O=C(CN1CCN(c2ccc(F)cc2)CC1)Nc1cc(C(F)(F)F)ccc1Cl,inactive: 0.7%
17,COc1ccc(CCN(C)C2CC(=O)N(c3ccccc3)C2=O)cc1OC (configuration not stated),inconclusive: -33.5%
18,Cc1nc(SCC(N)=O)c(C#N)c(C)c1C,inconclusive: -29.4%
19,COc1cccc2c1OCC(CN1CCN(Cc3ccccc3F)C(CCO)C1)=C2 (configuration not stated),inconclusive: 32.1%
